The values that follow come from US9234001B2, “Cysteine-free efficient Technetium (Tc) or Rhenium (Re) chelating peptide tags and their use” (Commissariat a L'Energie Atomique et aux Energies …, priority 2008, dated 2016).

A short description of the first data set: [TcO]3+ labelling of peptides and proteins with protocol 2, labelling yield by HPLC. The settings on record: 99(m+g)Tc labelling, (1-R1/R2) with caffeine internal reference, UBI 29-41 and analogs.
As to “SEQ ID NO: 2: analog of UBI 29-41, residue T1 replaced by an aminobutyric acid residue”, the “Labelling Yield” value is 34%.
On to “SEQ ID NO: 4: analog of UBI 29-41, residue K5 replaced by a Norleucine residue”, for which the “Labelling Yield” value amounted to 86%.
Consider “SEQ ID NO: 5: analog of UBI 29-41, Arginine 6 replaced by Norvaline”, for which the “Labelling Yield” value turned out to be 87%.
Take “SEQ ID NO: 6: analog of UBI 29-41, R7 replaced by a Norvaline”: the “Labelling Yield” value is listed as 84%.
Regarding “SEQ ID NO: 7: analog of UBI 29-41, Methionine 8 replaced by Norleucine”, the “Labelling Yield” value is 92%.
“SEQ ID NO: 8: analog of UBI 29-41, Q9 replaced by Amino butyric acid”: the “Labelling Yield” value is 88%.
As to “SEQ ID NO: 10: analog of UBI 29-41, Asparagine 11 replaced by Amino butyric acid”, the “Labelling Yield” value is recorded as 91%.
Same read-out and setting: the value for “SEQ ID NO: 11: analog of UBI 29-41, Arginine 12 replaced by Norvaline” was 95%; that for “SEQ ID NO: 12: analog of UBI 29-41, Arginine 13 replaced by Norvaline” was 93%; that for “TGRAKRRMQYNRR (Peptide Fragment; Free N-terminus; Free C-terminus) [SEQ ID NO: 13, non-acetylated version of UBI 29-41, free N-terminus, CO2 C-terminus]” was greater than 95%.

Staying with this data set, now noted: 99(m+g)Tc labelling, (1-R1/R2) with caffeine internal reference, UBI 29-41 and analogs, listed as 1.
For “TGRAKRRMQYNRR (N-acetyl, C-amide; UBI 29-41) [SEQ ID NO: 1, N-acetylated, C-amidated tridecamer, residue 29 to 41 of the protein Ubiquicidine, reference compound]”, the “Labelling Yield” value came to 79%.

Still in this data set, the particulars now being: 99(m+g)Tc labelling, (1-R1/R2) with caffeine internal reference, UBI 29-41 and analogs, listed as 3.
For “SEQ ID NO: 3: analog of UBI 29-41, Arginine 3 replaced by Norvaline”, the “Labelling Yield” value is listed as 78%.

The data set is the same for the next values; noted with them: 99(m+g)Tc labelling, (1-R1/R2) with caffeine internal reference, UBI 29-41 and analogs, listed as UBI 29-41.
Consider “TGRAKRRMQYNRR (N-acetyl, C-amide; UBI 29-41) [SEQ ID NO: 1, N-acetylated, C-amidated tridecamer, residue 29 to 41 of the protein Ubiquicidine, reference compound]”, for which the “Labelling Yield” value is 79%.

The data set is the same for the next values; noted with them: 99(m+g)Tc labelling, UBI-29-41 fragments and their analogs.
For “AcRRRGT (retro-inverso D-amino acids, N-acetyl, C-amide; Peptide P15)”, the “Labelling Yield” value is reported as 75%.
For the substance “P5: Ac-T-G-R-A-K-R-Nva-NH2, residue R7 replaced by a Norvaline”, the “Labelling Yield” value worked out at 63%.
Consider “TGRA (N-acetyl, C-amide; Peptide Fragment) [P1, Ac-TGRA-NH2]”, for which the “Labelling Yield” value is recorded as 11%.
As to “TGRAAR (N-acetyl, C-amide; Peptide Fragment) [P7, Ac-TGRAAR-NH2]”, the “Labelling Yield” value turned out to be 19%.
Consider “TGRAKR (N-acetyl, C-amide; Peptide Fragment) [P3, Ac-TGRAKR-NH2]”, for which the “Labelling Yield” value was found to be 67%.
In the case of “TGRAKRR (N-acetyl, C-amide; Peptide Fragment) [P4, Ac-TGRAKRR-NH2]”, the “Labelling Yield” value turned out to be 71%.
With “TGRARR (N-acetyl, C-amide; Peptide Fragment) [P6, Ac-TGRARR-NH2]”, the “Labelling Yield” value worked out at 86%.
Take “TGRRR [P9] (N-acetyl, C-amide; Peptide Fragment) [Ac-TGRRR-NH2]”: the “Labelling Yield” value amounted to 68%.
On the same count and under the same terms, the value for “TGRRR [P14] (N-acetyl; Peptide Fragment; Free C-terminus) [Ac-TGRRR-CO2, free carboxyl terminal group]” was 56%.
